According to PMC6166740:
These are yes or no findings as the source states them, for the method shown. Binding seen in cells or lysates may run through a third protein. Some entries that bind do so weakly or less than the wild type. Tags and fused reporters may be left off the sequences shown.

Sequences of proteins named here, by UniProt entry; tags and fusion partners are left off. Residues count along the entry.
UniProt Q5HYA8, residues 37-995: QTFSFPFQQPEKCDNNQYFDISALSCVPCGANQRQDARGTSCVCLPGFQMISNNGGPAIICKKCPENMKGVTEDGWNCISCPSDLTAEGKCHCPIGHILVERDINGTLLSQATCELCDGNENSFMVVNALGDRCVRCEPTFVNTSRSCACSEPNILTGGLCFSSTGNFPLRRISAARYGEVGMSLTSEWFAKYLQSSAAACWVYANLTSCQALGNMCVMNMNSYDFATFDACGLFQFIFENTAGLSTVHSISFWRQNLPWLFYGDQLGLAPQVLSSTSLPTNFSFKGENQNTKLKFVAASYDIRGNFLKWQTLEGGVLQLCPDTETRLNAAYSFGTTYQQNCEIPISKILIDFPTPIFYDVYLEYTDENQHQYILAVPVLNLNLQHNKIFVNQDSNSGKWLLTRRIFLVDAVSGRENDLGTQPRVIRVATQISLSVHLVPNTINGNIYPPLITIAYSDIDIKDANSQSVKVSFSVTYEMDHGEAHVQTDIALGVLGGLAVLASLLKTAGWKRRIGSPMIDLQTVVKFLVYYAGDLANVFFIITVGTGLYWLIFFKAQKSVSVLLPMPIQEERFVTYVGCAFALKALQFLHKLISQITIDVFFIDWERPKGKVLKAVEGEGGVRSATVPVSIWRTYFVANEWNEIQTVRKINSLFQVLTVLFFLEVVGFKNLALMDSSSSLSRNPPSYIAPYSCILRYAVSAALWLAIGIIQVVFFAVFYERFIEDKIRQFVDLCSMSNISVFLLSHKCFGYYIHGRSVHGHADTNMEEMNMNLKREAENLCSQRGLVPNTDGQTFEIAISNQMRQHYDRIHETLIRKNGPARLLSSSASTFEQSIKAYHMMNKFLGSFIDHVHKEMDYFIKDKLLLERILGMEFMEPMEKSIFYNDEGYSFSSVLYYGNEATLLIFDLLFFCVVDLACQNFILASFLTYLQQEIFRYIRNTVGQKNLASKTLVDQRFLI
UniProt P55884: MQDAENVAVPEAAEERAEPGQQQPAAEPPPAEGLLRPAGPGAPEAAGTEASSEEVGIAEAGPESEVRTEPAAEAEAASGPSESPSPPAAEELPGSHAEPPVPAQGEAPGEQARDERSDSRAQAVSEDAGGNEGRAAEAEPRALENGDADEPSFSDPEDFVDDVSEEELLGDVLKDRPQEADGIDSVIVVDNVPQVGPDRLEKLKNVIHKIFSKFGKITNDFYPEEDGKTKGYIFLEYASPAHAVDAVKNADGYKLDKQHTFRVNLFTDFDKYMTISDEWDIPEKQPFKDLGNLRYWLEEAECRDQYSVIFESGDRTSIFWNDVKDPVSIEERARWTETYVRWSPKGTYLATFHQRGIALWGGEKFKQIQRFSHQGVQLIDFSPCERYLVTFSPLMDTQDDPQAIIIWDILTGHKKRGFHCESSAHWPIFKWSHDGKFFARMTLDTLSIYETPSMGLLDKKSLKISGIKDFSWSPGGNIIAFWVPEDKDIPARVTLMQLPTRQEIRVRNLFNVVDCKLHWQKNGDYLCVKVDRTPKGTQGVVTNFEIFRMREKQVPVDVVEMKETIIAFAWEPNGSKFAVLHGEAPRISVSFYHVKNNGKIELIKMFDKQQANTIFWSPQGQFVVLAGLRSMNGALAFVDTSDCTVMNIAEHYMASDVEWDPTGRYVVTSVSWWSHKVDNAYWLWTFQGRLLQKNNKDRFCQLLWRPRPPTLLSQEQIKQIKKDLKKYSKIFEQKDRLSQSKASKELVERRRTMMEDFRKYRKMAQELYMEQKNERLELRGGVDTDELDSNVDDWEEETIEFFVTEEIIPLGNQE

T1: FLAG-tagged NPHP4 (UniProt O75161)
T1 sequence: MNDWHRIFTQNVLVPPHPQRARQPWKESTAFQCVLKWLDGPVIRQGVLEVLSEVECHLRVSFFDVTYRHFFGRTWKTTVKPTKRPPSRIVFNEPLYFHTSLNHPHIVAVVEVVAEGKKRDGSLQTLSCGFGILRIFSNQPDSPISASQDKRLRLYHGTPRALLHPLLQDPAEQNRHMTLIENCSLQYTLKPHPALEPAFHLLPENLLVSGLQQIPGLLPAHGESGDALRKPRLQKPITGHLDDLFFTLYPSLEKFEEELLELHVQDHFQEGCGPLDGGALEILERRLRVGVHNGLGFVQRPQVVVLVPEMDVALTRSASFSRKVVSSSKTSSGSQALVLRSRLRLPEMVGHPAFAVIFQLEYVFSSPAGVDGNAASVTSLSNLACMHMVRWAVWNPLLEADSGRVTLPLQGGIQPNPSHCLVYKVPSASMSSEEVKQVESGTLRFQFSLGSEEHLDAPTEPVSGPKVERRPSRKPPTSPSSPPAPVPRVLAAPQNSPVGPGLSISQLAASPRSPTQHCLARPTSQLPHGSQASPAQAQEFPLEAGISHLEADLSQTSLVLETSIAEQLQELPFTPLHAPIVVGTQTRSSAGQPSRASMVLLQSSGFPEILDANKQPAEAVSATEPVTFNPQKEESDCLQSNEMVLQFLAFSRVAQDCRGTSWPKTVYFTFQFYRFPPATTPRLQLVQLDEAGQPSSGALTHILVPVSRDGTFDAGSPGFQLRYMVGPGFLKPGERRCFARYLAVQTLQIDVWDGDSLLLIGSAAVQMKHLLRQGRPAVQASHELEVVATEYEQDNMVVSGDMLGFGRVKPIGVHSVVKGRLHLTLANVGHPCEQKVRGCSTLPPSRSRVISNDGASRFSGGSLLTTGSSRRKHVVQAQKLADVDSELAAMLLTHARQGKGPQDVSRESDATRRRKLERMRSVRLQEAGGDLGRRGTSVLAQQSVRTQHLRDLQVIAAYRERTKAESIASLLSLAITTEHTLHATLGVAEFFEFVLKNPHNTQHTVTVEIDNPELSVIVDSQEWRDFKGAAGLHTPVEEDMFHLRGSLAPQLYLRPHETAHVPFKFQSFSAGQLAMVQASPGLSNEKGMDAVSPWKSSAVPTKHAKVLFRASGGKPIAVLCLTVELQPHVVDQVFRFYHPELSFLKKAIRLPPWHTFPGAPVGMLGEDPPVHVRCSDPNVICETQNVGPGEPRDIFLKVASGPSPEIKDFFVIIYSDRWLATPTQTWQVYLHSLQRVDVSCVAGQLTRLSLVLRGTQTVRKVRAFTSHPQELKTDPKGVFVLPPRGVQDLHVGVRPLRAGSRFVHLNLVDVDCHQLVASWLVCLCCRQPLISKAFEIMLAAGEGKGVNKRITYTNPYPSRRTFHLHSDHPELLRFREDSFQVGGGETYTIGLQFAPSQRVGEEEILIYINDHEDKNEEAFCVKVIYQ


Columns and labels:
Assay in all cases: co-IP; FLAG-tagged and V5-tagged proteins coexpressed in HEK293T cells (calcium phosphate, 24 h); lysis in 1% Triton X-100, 20 mM Tris pH 7.5, 50 mM NaCl, 50 mM NaF, 15 mM Na4P2O7, 0.1 mM EDTA; anti-FLAG M2 agarose beads 2 h; Western blot with anti-V5 and anti-FLAG
TMEM67 = TMEM67 (UniProt Q5HYA8)
FLAG-tagged NPHP4 = target: T1, FLAG-tagged NPHP4
FLAG-tagged EIF3B = FLAG-tagged EIF3B (UniProt P55884)

Row | binding (TMEM67) | binding (FLAG-tagged NPHP4) | binding (FLAG-tagged EIF3B) | Binder
1 | binds | binds |  | V5-tagged NME3 (enzyme, UniProt Q13232 1-169) MICLVLTIFANLFPAACTGAHERTFLAVKPDGVQRRLVGEIVRRFERKGFKLVALKLVQASEELLREHYAELRERPFYGRLVKYMASGPVVAMVWQGLDVVRTSRALIGATNPADAPPGTIRGDFCIEVGKNLIHGSDSVESARREIALWFRADELLCWEDSAGHWLYE
2 |  |  | binds | V5-tagged ANKS6 (ankyrin repeat and sterile alpha motif domain-containing 6) (protein, UniProt Q68DC2 1-871) MGEGGLPPAFQLLLRACDQGDTETARRLLEPGAAEPAERGAEPEAGAEPAGAEVAGPGAAAAGAVGAPVPVDCSDEAGNTALQFAAAGGHEPLVRFLLRRGASVNSRNHYGWSALMQAARFGHVSVAHLLLDHGADVNAQNRLGASVLTVASRGGHLGVVKLLLEAGAFVDHHHPSGEQLGLGGSRDEPLDITALMAAIQHGHEAVVRLLMEWGADPNHAARTVGWSPLMLAALTGRLGVAQQLVEKGANPDHLSVLEKTAFEVALDCKHRDLVDYLDPLTTVRPKTDEEKRRPDIFHALKMGNFQLVKEIADEDPSHVNLVNGDGATPLMLAAVTGQLALVQLLVERHADVDKQDSVHGWTALMQATYHGNKEIVKYLLNQGADVTLRAKNGYTAFDLVMLLNDPDTELVRLLASVCMQVNKDKGRPSHQPPLPHSKVRQPWSIPVLPDDKGGLKSWWNRMSNRFRKLKLMQTLPRGLSSNQPLPFSDEPEPALDSTMRAAPQDKTSRSALPDAAPVTKDNGPGSTRGEKEDTLLTTMLRNGAPLTRLPSDKLKAVIPPFLPPSSFELWSSDRSRTRHNGKADPMKTALPQRASRGHPVGGGGTDTTPVRPVKFPSLPRSPASSANSGNFNHSPHSSGGSSGVGVSRHGGELLNRSGGSIDNVLSQIAAQRKKAAGLLEQKPSHRSSPVGPAPGSSPSELPASPAGGSAPVGKKLETSKRPPSGTSTTSKSTSPTLTPSPSPKGHTAESSVSSSSSHRQSKSSGGSSSGTITDEDELTGILKKLSLEKYQPIFEEQEVDMEAFLTLTDGDLKELGIKTDGSRQQILAAISELNAGKGRERQILQETIHNFHSSFESSASNTRAPGNSPCA
